Experimental findings from patent US10975042B2, “Method for purifying an amino acid-n-carboxy anhydride” (SHIN-ETSU CHEMICAL CO., LTD., priority 2018, dated 2021) are described below.

This series in a line: Polymerization inhibiting test: viscosity change of NCA solution with filter aid/additive. The settings on record: 0.2 g NCA (A) in 1.0 g ethyl acetate plus filter aid/additive, visually observed.

Where a name gives a salt, the structure may show the parent alone.

Turning to `Cl` [HCl in AcOEt, hydrogen chloride, reference compound], the “viscosity change of NCA solution, 40° C. (5 min.)” value is recorded as “No change” and the “viscosity change of NCA solution, 60° C. (5 min.)” value is recorded as “No change”.

As to `O=S(=O)([O-])[O-].[Mg+2]` [Magnesium sulfate, magnesium sulfate], the “viscosity change of NCA solution, 40° C. (5 min.)” value was “No change” and the “viscosity change of NCA solution, 60° C. (5 min.)” value was “No change”.
